KR20130126543A
No constants are given. Whether binding was seen depends on the method and setting. Some binding calls cover weakened binding; strength is not graded here. Each block holds one binder with its values, some of them ahead of it.

Protein sequences, listed by entry. Tags and fused reporters are not part of them. Residues count along the entry.
UniProt P08887, residues 20-365: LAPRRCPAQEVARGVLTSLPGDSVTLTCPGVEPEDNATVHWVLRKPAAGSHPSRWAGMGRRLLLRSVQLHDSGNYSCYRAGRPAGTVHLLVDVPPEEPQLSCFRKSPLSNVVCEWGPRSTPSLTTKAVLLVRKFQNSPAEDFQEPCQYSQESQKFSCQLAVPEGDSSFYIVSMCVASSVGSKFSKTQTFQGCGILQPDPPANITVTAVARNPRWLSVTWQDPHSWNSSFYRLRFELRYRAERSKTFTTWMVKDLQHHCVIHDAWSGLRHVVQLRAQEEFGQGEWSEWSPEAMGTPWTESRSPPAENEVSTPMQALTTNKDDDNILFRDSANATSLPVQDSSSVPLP

Target: IL-6R-Fc 항원 (human) (UniProt P08887)
Assay: ELISA titration on coated IL-6R

binding: binds
B1: 항 IL-6R 단클론 항체 A7 (antibody, V domains shown)
VH: QMQLVESGGGLVQPGTSLRLSCAASGFKFEDYAMHWVRQAPGKGLEWVSGVSWNSGTIAYVDSVKGRFTISRDNAKNSLYLQMNSLRAEDTAVYYCARDFTYFYESSGYYAFDLWGQGTMVTVSS
VL: SQLVLTQPPSVSGAPGQRVTISCTGTNSNIGAGYDVHWYQQVPGTTPKLLIYGNTNRPSGVPDRFSGSKSGTSASLAITGLQAEDGGDYYCQSFDSSLTGSVFGTGTKVTVL

binding: binds
B2: 항 IL-6R 단클론 항체 F2 (antibody, V domains shown)
VH: QVQLVESGAEVKKPGASVKVSCKASGYTFTNYYMHWVRQAPGQGLEWMGIINPSGGNTGYAQKFQGRVTMTRDMSTSTAYMELSSLRSEDTAVYYCARGLPWGENGLDVWGQGTTVTVSS
VL: SQLVLTQPSSVSGAPGQTVTISCTGSSSNIGAGYDVHWYQQLPGTAPKVLIYGDSDRPSGVPDRFSGSKSATSASLAITGLQAEDEADYYCQSYDSSLSAYVFGTGTKVTVL
